Laboratory results: patent US20240228612A1
No constants are given. Whether binding was seen depends on the method and setting. Binding can be weak; no strength is given.

What was measured:
[1] = biological target: cynomolgus monkey Nectin-4 protein (cynomolgus monkey); experiment: ELISA, coated cynomolgus monkey Nectin-4, anti-human-HRP
[2] = biological target: cynomolgus monkey Nectin-4 protein (cynomolgus monkey); experiment: BLI (Octet Fortebio)
[3] = biological target: cynomolgus monkey Nectin-4 protein (cynomolgus monkey); experiment: ELISA, coated antigen

Measured: binding

B1: anti-human Nectin-4 humanized monoclonal antibody 31HZ (antibody, human IgG1, kappa, V domains shown)
VH: QVQLVQSGAEVKKPGSSVKVSCKASGYTFTDYWMNWVRLAPGQGLEWIGMIHPSDSETRLNQKFQGRVTLTVDKSTSTAYMELSSLRSEDTAVYYCARWDFRIYYAMDYWGQGTLVTVSS
VL: DVVITQSPDSLAVSLGERATINCKSSQSLLNTNSQKNYLAWYQQKPGQSPKLLVYFASTRESGVPDRFSGSGSGTDFTLTISSLQAEDVAVYFCQQHYSTPLTFGGGTKVEIKR
binds: all assays above

B2: anti-human Nectin-4 humanized monoclonal antibody 74HZ (antibody, human IgG1, kappa, V domains shown)
VH: QVQLVQSGAEVKKPGSSVKVSCKASGYTFINYWMNWVRQAPGQGLEWIGMIHPSDSATRLNQSFQGRVTLTVDKSTSTAYMELSSLRSEDTAVYYCARWGNFYTVNAWYYFDYWGQGTLVTVSS
VL: DIVITQSPDSLAVSLGERATINCKSSQTLLNSNTQKNYLAWYQQKPGQSPKLLFYFASTRESGVPDRFSGSGSGTDFTLTISSLQAEDVAVYFCQQHYSTPLTFGQGTKLEIKR
binds: all assays above

B3: anti-human Nectin-4 humanized monoclonal antibody 56HZ (antibody, human IgG1, kappa, V domains shown)
VH: QVQLQESGPGLVKPSQTLSLTCTVSGYFNSITSDYDWHWIRHHPGKGLEWMGYISFSGRTYYNPSLKSRVTISHDTSKNQFSLKLSSVTAADTAVYYCARGNYDGFDYWGQGTLVTVSS
VL: DIVLTQSPATLSLSPGERATLSCRASQNIGTSIHWYQHKPGQSPRLLIKFASESISGIPARFSGSGSGTDFTLTISSLEPEDFAVYYCQQSKSWPTYTFGGGTKVEIKR
binds: all assays above
